Measured values: patent publication US20070265194A1, “Agents for the treatment of viral infections” (priority 2000, published 2007)
For at least one compound, name, drawing or mass did not settle the structure.

What was measured:
DHBV = assay: Primary and secondary DHBV infection in primary duck hepatocytes, core immunofluorescence; format: cell-based, duck hepatitis B virus; conditions: 1 μM, day 3 to day 6 after infection
HIV-1NL4-3 = assay: HIV-1 replication in A3.01 cell culture, RT activity in supernatant; format: cell-based

Q: Which “number of core-positive cells compared to untreated cultures” value (DHBV) does the source give for `CC[C@H](C)[C@H](NC(=O)[C@H]([C@@H](C)CC)N(C)C(C)=O)C(=O)N[C@H](C(=O)N[C@@H](CC(C)C)C(=O)[C@@]1(C)CO1)[C@@H](C)O` [epoxomicin] here?
A: The value was “much lower number of core-positive cells”.

Q: What about the “effect on HIV-1 replication” value (HIV-1NL4-3; 10 nanoM) of the same compound?
A: The value was “almost complete blockage”.

Q: And the “effect on HIV-1 replication” value (HIV-1NL4-3; 100 nanoM)?
A: The value was “complete”.
